At least one compound was matched to its structure with a doubt left.
Test system: HCC
Experiment: Superfusion of isolated corpus cavernosum (human, HCC)
Assay type: cell-based
Details: Ach 0.6 μM, GTN 1.3 μM, Cat 10-100 μL; 4 tissue strips from 2 donators

CC(=O)OCC[N+](C)(C)C [ACh, acetylcholine]
relaxation of HCC during L-NAME infusion: significantly reduced
